# Measurements: the supplement of paper PMC10849652
# The chains behind the UniProt entries cited, without tags or fusion partners. Where a name states a change or a piece, a line headed by the entry shows the natural chain unless it says otherwise.
# UniProt A4D1S5: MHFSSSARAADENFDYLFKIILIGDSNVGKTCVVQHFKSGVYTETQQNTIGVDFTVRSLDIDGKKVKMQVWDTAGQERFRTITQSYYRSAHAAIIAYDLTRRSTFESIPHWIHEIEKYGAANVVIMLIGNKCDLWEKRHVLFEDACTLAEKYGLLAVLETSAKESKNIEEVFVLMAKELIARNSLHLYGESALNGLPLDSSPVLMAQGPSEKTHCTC
# UniProt Q6VN20, whole entry, looked up: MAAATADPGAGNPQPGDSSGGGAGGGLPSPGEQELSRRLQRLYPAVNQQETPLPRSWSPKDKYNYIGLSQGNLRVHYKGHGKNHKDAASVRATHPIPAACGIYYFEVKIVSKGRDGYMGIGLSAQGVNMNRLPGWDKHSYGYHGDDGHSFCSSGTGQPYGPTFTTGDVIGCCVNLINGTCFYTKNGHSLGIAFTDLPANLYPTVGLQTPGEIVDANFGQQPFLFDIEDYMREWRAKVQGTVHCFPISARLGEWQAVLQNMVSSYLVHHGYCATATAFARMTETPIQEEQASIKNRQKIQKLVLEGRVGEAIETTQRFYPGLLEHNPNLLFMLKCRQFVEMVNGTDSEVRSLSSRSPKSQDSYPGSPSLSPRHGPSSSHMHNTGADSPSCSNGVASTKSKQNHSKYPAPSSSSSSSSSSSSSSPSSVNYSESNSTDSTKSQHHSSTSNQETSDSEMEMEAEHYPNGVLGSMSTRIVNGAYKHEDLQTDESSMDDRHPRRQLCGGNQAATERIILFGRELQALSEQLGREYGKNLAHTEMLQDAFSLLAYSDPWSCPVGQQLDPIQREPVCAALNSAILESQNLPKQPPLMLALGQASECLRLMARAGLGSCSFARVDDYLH
# UniProt Q7Z6E9: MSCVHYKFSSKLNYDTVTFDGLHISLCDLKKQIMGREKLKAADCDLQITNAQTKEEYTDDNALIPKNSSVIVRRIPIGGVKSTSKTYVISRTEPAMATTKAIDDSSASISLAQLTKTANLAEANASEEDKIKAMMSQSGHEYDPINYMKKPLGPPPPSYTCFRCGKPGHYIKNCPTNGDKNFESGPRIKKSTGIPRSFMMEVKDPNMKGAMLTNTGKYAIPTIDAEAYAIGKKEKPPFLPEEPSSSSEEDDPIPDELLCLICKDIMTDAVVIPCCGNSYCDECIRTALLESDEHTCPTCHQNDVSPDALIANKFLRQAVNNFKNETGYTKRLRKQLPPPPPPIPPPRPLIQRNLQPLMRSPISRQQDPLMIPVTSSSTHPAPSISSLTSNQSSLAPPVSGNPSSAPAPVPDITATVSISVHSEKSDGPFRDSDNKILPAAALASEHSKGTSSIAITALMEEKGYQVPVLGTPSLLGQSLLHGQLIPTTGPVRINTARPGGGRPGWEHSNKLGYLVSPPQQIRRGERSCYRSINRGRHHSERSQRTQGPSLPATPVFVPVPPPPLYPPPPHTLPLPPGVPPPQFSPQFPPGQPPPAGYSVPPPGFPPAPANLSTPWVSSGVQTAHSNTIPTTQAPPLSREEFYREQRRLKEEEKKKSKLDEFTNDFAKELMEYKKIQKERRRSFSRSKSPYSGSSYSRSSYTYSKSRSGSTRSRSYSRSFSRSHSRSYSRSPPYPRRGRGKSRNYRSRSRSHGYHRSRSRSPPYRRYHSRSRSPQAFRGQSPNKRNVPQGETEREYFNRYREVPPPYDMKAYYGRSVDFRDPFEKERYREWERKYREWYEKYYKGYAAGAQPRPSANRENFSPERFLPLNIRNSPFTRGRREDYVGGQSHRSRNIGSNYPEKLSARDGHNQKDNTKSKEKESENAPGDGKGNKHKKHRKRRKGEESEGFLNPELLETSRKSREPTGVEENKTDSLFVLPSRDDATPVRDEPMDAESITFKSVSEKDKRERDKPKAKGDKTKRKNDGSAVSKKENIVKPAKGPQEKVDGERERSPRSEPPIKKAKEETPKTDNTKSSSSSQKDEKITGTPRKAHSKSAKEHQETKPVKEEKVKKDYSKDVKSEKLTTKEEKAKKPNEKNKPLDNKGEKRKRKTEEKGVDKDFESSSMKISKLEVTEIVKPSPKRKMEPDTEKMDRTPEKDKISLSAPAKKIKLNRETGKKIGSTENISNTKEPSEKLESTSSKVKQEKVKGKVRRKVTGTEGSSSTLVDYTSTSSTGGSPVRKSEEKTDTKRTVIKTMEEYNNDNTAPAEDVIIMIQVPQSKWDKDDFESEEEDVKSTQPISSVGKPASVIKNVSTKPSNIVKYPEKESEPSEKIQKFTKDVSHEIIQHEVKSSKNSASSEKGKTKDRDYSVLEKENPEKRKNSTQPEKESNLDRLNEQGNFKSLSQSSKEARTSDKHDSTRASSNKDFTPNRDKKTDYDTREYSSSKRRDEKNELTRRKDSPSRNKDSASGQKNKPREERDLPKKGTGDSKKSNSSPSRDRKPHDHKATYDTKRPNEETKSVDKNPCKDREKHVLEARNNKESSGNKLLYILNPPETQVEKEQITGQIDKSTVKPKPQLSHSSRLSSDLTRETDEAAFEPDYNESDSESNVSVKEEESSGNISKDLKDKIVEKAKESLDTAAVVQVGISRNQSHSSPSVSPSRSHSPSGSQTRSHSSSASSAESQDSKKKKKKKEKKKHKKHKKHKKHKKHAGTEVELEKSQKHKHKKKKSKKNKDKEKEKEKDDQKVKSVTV
# UniProt Q15311: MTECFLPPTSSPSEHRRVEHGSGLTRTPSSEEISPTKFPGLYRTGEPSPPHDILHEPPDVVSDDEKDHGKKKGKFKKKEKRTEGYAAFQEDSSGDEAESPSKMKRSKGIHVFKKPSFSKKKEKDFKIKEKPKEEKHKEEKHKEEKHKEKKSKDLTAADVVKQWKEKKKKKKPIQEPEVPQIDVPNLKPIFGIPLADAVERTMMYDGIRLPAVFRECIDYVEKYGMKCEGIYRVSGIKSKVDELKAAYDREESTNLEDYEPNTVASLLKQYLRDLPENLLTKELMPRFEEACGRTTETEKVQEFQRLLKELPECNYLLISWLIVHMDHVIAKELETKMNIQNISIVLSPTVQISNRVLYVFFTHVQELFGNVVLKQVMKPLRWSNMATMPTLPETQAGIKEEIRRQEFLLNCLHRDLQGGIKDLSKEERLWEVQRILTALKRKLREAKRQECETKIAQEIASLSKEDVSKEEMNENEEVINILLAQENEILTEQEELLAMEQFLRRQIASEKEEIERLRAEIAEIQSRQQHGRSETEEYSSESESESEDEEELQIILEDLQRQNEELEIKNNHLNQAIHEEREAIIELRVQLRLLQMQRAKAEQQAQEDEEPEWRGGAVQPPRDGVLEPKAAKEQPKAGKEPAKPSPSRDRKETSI
# UniProt Q8TEU7: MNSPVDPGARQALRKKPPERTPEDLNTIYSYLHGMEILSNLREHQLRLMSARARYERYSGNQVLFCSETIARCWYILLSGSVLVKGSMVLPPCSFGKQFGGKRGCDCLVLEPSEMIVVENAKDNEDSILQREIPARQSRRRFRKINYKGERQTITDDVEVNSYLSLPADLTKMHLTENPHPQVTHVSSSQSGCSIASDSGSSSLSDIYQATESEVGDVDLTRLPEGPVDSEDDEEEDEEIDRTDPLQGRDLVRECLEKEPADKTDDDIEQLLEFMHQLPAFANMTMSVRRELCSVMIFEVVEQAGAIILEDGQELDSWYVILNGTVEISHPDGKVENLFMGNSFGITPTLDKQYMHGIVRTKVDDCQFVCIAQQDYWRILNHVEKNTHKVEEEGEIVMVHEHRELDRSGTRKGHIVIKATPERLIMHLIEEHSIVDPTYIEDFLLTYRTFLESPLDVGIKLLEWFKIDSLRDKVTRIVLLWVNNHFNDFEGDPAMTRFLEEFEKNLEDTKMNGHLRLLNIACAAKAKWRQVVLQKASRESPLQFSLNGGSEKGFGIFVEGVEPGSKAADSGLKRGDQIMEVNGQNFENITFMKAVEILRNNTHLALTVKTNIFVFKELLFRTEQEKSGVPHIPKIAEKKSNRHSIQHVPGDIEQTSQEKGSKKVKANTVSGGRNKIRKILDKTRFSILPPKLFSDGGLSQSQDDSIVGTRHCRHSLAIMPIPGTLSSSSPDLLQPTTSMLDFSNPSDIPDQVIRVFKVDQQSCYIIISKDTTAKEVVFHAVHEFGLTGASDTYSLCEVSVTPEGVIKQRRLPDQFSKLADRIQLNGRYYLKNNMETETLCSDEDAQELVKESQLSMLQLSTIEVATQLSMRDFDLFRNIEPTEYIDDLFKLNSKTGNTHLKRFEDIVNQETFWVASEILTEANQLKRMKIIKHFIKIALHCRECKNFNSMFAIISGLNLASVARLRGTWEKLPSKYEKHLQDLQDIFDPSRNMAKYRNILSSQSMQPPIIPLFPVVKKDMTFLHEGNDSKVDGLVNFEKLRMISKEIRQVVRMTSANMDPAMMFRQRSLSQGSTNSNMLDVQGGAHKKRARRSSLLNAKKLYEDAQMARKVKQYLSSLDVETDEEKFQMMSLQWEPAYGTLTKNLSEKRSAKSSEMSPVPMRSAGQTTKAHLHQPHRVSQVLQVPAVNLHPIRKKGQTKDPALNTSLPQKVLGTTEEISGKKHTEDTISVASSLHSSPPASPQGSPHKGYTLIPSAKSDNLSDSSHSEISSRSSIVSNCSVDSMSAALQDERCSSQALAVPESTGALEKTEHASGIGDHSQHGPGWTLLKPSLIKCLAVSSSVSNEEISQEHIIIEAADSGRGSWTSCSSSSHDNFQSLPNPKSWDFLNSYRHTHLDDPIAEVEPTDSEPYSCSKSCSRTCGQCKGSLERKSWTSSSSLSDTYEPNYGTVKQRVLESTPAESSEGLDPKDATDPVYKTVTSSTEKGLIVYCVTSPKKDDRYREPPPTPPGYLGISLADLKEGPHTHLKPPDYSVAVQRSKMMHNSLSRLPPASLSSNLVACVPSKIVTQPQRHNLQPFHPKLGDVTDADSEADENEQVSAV
# UniProt O75943: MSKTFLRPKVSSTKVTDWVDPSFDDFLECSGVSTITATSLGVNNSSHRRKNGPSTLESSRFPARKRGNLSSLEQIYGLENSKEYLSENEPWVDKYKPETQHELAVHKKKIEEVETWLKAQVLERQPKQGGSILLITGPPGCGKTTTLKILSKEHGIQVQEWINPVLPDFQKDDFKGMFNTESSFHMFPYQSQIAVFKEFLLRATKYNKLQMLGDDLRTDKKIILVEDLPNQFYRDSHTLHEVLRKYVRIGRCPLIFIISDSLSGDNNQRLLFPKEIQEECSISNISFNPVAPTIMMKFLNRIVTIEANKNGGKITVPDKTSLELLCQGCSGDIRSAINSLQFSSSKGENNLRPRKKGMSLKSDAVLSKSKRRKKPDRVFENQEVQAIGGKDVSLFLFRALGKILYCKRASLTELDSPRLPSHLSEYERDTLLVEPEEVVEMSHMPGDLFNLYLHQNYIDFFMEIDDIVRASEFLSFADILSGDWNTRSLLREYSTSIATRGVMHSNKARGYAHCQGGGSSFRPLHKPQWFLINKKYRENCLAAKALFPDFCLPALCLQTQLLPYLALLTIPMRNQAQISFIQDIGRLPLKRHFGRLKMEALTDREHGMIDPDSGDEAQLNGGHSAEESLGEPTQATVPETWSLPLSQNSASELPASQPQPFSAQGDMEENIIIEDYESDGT
# UniProt P20337: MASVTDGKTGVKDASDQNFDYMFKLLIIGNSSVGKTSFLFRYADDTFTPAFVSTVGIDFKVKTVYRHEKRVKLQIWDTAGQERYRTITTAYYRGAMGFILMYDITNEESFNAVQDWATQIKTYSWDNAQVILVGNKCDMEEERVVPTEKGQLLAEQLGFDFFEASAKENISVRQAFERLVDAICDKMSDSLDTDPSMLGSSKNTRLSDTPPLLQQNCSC
# UniProt Q9H6Z4: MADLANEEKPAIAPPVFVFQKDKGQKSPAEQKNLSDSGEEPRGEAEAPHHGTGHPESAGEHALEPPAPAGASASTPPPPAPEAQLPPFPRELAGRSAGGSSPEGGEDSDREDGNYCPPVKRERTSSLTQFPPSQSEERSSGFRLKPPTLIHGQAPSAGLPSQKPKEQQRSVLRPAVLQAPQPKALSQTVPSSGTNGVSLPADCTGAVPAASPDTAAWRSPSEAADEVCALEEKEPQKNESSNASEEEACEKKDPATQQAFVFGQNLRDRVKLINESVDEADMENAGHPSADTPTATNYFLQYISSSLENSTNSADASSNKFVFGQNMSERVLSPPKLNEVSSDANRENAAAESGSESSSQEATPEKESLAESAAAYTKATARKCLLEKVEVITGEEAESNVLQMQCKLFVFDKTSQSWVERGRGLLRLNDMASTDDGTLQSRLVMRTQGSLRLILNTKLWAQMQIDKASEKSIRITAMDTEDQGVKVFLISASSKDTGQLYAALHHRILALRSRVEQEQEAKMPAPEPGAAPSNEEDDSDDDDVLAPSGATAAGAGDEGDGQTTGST
# UniProt Q86WH2: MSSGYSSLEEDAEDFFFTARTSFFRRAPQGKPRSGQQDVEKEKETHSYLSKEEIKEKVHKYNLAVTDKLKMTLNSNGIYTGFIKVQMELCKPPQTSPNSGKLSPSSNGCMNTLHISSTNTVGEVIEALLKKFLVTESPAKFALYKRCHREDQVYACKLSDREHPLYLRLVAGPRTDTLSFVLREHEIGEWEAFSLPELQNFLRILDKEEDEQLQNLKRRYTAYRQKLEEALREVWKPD
# Some of the results follow.
# Compound: COC1=CC=C(C=C1)CN2C=CC3=C2C=C(C=C3)C(=O)NO
# Test: log2 fold change, soluble protein after heating vs DMSO (PISA); higher = thermal stabilisation; K562 cells, 10 uM, 30 min; active = over 0.2 and 3.5 SD of the protein, either way, in both replicates (recomputed)
# Procedure, shortened: (§1)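 K562 cells (2×10^6 cells/mL) were treated with 10 μM compound for 30 min, and aliquots were heated for 3 min over 48°C-58°C. Pooled aliquots were extracted in PBS with 0.5% NP-40 at 4°C, and the supernatant after 21,000xg for 90 min was measured by TMTpro 16plex LC-MS/MS with channel sums equalised. Reported thermal stability, relative to control samples and from duplicates, is a log2 fold change.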
row,Target,log2 fold change
1,RAB19 isoform 2 (UniProt A4D1S5),inactive: -0.307
2,RALGPS2 (UniProt Q86X27),inactive: 0.246
3,RAB3IL1 (UniProt E9PK89),inactive: 0.031
4,RAB30 (UniProt Q15771),inactive: 0.044
5,RANBP10 (UniProt Q6VN20),inactive: 0.051
6,RBBP6 (UniProt Q7Z6E9),inactive: 0.101
7,RAB28 (UniProt P51157),inactive: -0.169
8,RBBP8 isoform 2 (UniProt Q99708),inactive: -0.049
9,RALBP1 (UniProt Q15311),inactive: -0.108
10,RAPGEF6 isoform 4 (UniProt Q8TEU7),inactive: -0.063
11,RAD17 (UniProt O75943),inactive: -0.037
12,RAP1B (UniProt F5GWU8),inactive: -0.086
13,RAB18 (UniProt H0Y6T8),inactive: -0.156

# Compound: CON(C)C(=O)N1N=C(c2cc(F)ccc2F)S[C@@]1(CCCN)c1ccccc1 [filanesib]
# Test: as above
# Procedure, shortened: as §1
row,Target,log2 fold change
1,RAI1 (UniProt Q7Z5J4),inactive: 0.396
2,RAB3B (UniProt P20337),inactive: -0.082
3,RAPGEF1 isoform 3 (UniProt Q13905),inactive: -0.239
4,RAB19 isoform 2 (UniProt A4D1S5),inactive: -0.008
5,RAB3IL1 (UniProt E9PK89),inactive: -0.22
6,RBBP9 (UniProt O75884),inactive: -0.189
7,RANBP3 isoform 2 (UniProt Q9H6Z4),inactive: 0.024
8,RANBP10 (UniProt Q6VN20),inactive: -0.04
9,RBM28 (UniProt Q9NW13),inactive: 0.375
10,RBBP6 (UniProt Q7Z6E9),active: 0.468
11,RALBP1 (UniProt Q15311),inactive: 0.254
12,RAPGEF6 isoform 4 (UniProt Q8TEU7),inactive: -0.123
13,RBM26 isoform 3 (UniProt Q5T8P6),inactive: 0.004
14,RASSF1 (UniProt Q9NS23),inactive: 0.217
15,RAB11FIP4 (UniProt Q86YS3),inactive: 0.007
16,RBBP5 isoform 2 (UniProt Q15291),inactive: 0.038

# Compound: CO[C@H]1C[C@@H]2CC[C@@H](C)[C@@](O)(O2)C(=O)C(=O)N2CCCC[C@H]2C(=O)O[C@H]([C@H](C)C[C@@H]2CC[C@H](n3cnnn3)[C@H](OC)C2)CC(=O)[C@H](C)/C=C(\C)[C@@H](O)[C@@H](OC)C(=O)[C@H](C)C[C@H](C)/C=C/C=C/C=C/1C [zotarolimus]
# Test: as above
# Procedure, shortened: as §1
row,Target,log2 fold change
1,RALGPS2 (UniProt Q86X27),inactive: 0.038
2,RAB3IL1 (UniProt E9PK89),inactive: 0.093
3,RAB30 (UniProt Q15771),inactive: 0.153
4,RANBP10 (UniProt Q6VN20),inactive: 0.032
5,RBBP4 isoform 2 (UniProt Q09028),inactive: -0.057
6,RBM28 (UniProt Q9NW13),inactive: -0.086
7,RBBP6 (UniProt Q7Z6E9),inactive: -0.052
8,RAB28 (UniProt P51157),inactive: 0.019
9,RABEP2 (UniProt Q9H5N1),inactive: -0.243
10,RASA3 (UniProt Q14644),inactive: 0.196
11,RALBP1 (UniProt Q15311),inactive: -0.014
12,RAPGEF6 isoform 4 (UniProt Q8TEU7),inactive: 0.168
13,RAP1B (UniProt F5GWU8),inactive: 0.114
14,RASSF3 (UniProt Q86WH2),inactive: 0.145
15,RAB18 (UniProt H0Y6T8),inactive: -0.054
16,RAB3D (UniProt O95716),inactive: -0.08
